The list shows a part of the results.
Each sequence was assayed against T1, OsSMF1 (Oryza sativa, UniProt Q6ZLB0 1-436) (assay: protein-binding microarray (RPBM); PBS, 2% BSA, 51.3 ng/ul salmon testes DNA, 50 uM zinc acetate, 200 nM TF, 25 C, 1 h; high values mean tight binding). Settings: protein: recombinant; tags: N-terminal polyhistidine and DsRed monomer fusion (pET32a); chain copies: 2; label: CyDye5-dUTP incorporated in the synthesized complementary strand; 3' TTTTT single-stranded linker to array surface; dsDNA, one strand shown.
T1 sequence: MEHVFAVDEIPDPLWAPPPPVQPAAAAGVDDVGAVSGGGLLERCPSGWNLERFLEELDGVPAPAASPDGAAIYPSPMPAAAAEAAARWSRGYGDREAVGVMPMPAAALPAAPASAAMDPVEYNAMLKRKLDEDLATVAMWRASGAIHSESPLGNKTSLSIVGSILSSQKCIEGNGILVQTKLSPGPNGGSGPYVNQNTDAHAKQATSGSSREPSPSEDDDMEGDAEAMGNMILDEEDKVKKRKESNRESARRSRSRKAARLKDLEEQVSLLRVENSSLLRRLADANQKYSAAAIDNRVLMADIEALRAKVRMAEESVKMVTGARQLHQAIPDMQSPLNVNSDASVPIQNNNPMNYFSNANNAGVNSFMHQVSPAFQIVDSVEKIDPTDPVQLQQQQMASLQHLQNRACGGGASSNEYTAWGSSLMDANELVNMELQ
Procedure, shortened: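 An Axon 4000B scanner gave the binding signal as per-feature fluorescence intensity in arbitrary units. This followed washing of a custom Agilent array that had been incubated for 1 h at 25 °C with 200 nM protein in PBS, 2% BSA, salmon testes DNA and 50 µM zinc acetate. The proteins were transcription factors fused at the N-terminus to polyhistidine and DsRed, expressed in E. coli BL21-CodonPlus and purified on Ni–NTA.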

Row | Sequence | binding signal
1 | CACCGACAGGCATGGCCCACACGTCAGGCGTGGCCGCCCGCGGAGTCACCTAGTGCAG | 11100 fluorescence intensity (a.u.)
2 | GACTCATCTTTTGGCAGCGACTCGCGTGGATCCTGACAAACGGAGTCACCTAGTGCAG | 3210 fluorescence intensity (a.u.)
3 | GTTAGTCATATCCATGGGTGGTTTGCATGGGAGAAGTCAGCGGAGTCACCTAGTGCAG | 4220 fluorescence intensity (a.u.)
4 | CCGTAATGCTGGAACTATGGCGAATGCATCTATCGTCATTCGGAGTCACCTAGTGCAG | 3170 fluorescence intensity (a.u.)
5 | TTATGAACTTGCTCAGTTTGCTAAACGGACGGCACATTACCGGAGTCACCTAGTGCAG | 32100 fluorescence intensity (a.u.)
6 | ATTAGTTGATTTGCAAATAATTTCCACCGTGGCGTGACAACGGAGTCACCTAGTGCAG | 4300 fluorescence intensity (a.u.)
7 | CTCCTGGTACGCCTCGCTCAGCTCGTCCACCGTCGCCTCCCGGAGTCACCTAGTGCAG | 3750 fluorescence intensity (a.u.)
8 | ATGGGTCGACCCACGTATCCACTCAGCGTTTACATTACCACGGAGTCACCTAGTGCAG | 17700 fluorescence intensity (a.u.)
9 | CCAGACTGCCTAACTGTACAGTCACGGCGCCATCTCGGACCGGAGTCACCTAGTGCAG | 4250 fluorescence intensity (a.u.)
10 | GCGCAAGCAAACCAACCTGACTCCGACCCGTACCCGTCCCCGGAGTCACCTAGTGCAG | 4600 fluorescence intensity (a.u.)
11 | GCGAGCGGCCAACTGGGAAGGCGGTGGTGAGGACATCGTGCGGAGTCACCTAGTGCAG | 5400 fluorescence intensity (a.u.)
12 | AGCAATCGTGTGCGCGTAGCCACACGTATCAGCGCCCCACCGGAGTCACCTAGTGCAG | 3220 fluorescence intensity (a.u.)
13 | ATTGGTCCACACGTCATACTCTTATTTTCTAGCCAAAGTTCGGAGTCACCTAGTGCAG | 13500 fluorescence intensity (a.u.)
14 | TCCTTCTTCCTTGGCCTCTTCCTAATGACAAGCCCTTGCGCGGAGTCACCTAGTGCAG | 3610 fluorescence intensity (a.u.)
15 | AATTGTTATGACGTGTCCCATGCATTATCAAACTTTGTGTCGGAGTCACCTAGTGCAG | 20800 fluorescence intensity (a.u.)
16 | GCGAAAACCCTGCATAAACATAGGAAAACACCAAGTGGGTCGGAGTCACCTAGTGCAG | 3560 fluorescence intensity (a.u.)
17 | TTAGGTGTGGGAGGTTAGCTTATTAGATTACTTGCCGTGTCGGAGTCACCTAGTGCAG | 3450 fluorescence intensity (a.u.)
18 | GTTCTCTAATGATACCCGTATGTCAGTTATCTCGTTGGAACGGAGTCACCTAGTGCAG | 15100 fluorescence intensity (a.u.)
19 | GCTTCGACGTGTCCGTGCCACGTGCCGTCCCTCCATTCGCCGGAGTCACCTAGTGCAG | 18000 fluorescence intensity (a.u.)
20 | TGACGCTCCGGTGCAGCAGCAGCAGCAGCAGCGTGGCATTCGGAGTCACCTAGTGCAG | 4460 fluorescence intensity (a.u.)
21 | TTTGTTAGTTGCACAAAAGATTAGCACATGTTTTCTTTTACGGAGTCACCTAGTGCAG | 3780 fluorescence intensity (a.u.)

Pulled one by one from the entries so far, two records:
Row | Sequence | binding signal
21 | TTTGTTAGTTGCACAAAAGATTAGCACATGTTTTCTTTTACGGAGTCACCTAGTGCAG | 3780 fluorescence intensity (a.u.)
14 | TCCTTCTTCCTTGGCCTCTTCCTAATGACAAGCCCTTGCGCGGAGTCACCTAGTGCAG | 3610 fluorescence intensity (a.u.)

The list goes on.

Row | Sequence | binding signal
22 | GGGTCGGACGGTGGCGTACCTGGGTCTTGGCGCCACAGATCGGAGTCACCTAGTGCAG | 3500 fluorescence intensity (a.u.)
23 | TTGATGCTATAAAAGGATTGTTGACAACGTGGTCACGCACCGGAGTCACCTAGTGCAG | 4310 fluorescence intensity (a.u.)
24 | AGTGCCTGTGTGCCCACCACGTACTCTCCAACTATACATGCGGAGTCACCTAGTGCAG | 3840 fluorescence intensity (a.u.)
25 | CCGACGAGGACGAGGCGGCGTGGTCGAAGCCGGCGGTCGGCGGAGTCACCTAGTGCAG | 42500 fluorescence intensity (a.u.)
26 | GGCCGGCGGCGAGAGCAGCTCGATCGCAGTAGCGATGGATCGGAGTCACCTAGTGCAG | 29200 fluorescence intensity (a.u.)
27 | GTTGAGTGGAAATGTTTGTGCGCTTTCTGAAACCTATACTCGGAGTCACCTAGTGCAG | 15700 fluorescence intensity (a.u.)
28 | ATATGTTACTCTCGCATCATATCCCCGGTTCTGTATGACACGGAGTCACCTAGTGCAG | 4200 fluorescence intensity (a.u.)
29 | CGGTGGATGCTGGAAAATCTTGTGCTTTATGCCGCGGTGACGGAGTCACCTAGTGCAG | 3940 fluorescence intensity (a.u.)
30 | AGTGGCCTAATTGCCAACCTAGATGATGCGACATTCCAGCCGGAGTCACCTAGTGCAG | 3640 fluorescence intensity (a.u.)
31 | CTCGCAAAGCATCGACGTGCCACCTACCCCATCCGGAACACGGAGTCACCTAGTGCAG | 3330 fluorescence intensity (a.u.)
32 | TCGGAAATCGTTTCCGTGCTCACCACGTACTCACCAGCGCCGGAGTCACCTAGTGCAG | 6000 fluorescence intensity (a.u.)
33 | GCTAAACTAAACACAGCCTTCGTCAGGTCATCGCCGATCACGGAGTCACCTAGTGCAG | 3280 fluorescence intensity (a.u.)
34 | TAGTTTTGTGACACTTCATTTTAAACGTGTAGTTTTGTGGCGGAGTCACCTAGTGCAG | 4850 fluorescence intensity (a.u.)
35 | TCAATTTCGATTCTCCCTCCGTCGTCGCGGCCCTATTCTACGGAGTCACCTAGTGCAG | 3360 fluorescence intensity (a.u.)
36 | GAGCTCCTTCCCCACACGTGGTTTCCCGCGCGAGATCCTCCGGAGTCACCTAGTGCAG | 4430 fluorescence intensity (a.u.)
37 | AATATAGGGATACTGTGTTGGTGATGCTCTTAATCCTAGGCGGAGTCACCTAGTGCAG | 3220 fluorescence intensity (a.u.)
38 | CGCCGAATCATTCGCGGCATATCGCATCGGCATCGGATTGCGGAGTCACCTAGTGCAG | 3390 fluorescence intensity (a.u.)
39 | GCGGAAGCGCCATGTGGTTTGTCGTGACGTGGCGTGACGTCGGAGTCACCTAGTGCAG | 32600 fluorescence intensity (a.u.)
40 | TTCTATATACAAATACAACAGCTAAACTGTGCCACTGGCGCGGAGTCACCTAGTGCAG | 4070 fluorescence intensity (a.u.)
41 | TACAGATGGTCGAGATTGACCCACGTCGTCCAAGGATTCGCGGAGTCACCTAGTGCAG | 4340 fluorescence intensity (a.u.)
42 | CCTCGCATCGCATCCCCACCTCCGCCGATCCCGCCGTCTCCGGAGTCACCTAGTGCAG | 3400 fluorescence intensity (a.u.)
